Experimental data published in PubChem BioAssay AID588525 (Broad Institute, 2011).
This list was built around the results that the source calls inconclusive (neither active nor inactive); the mix of calls is not that of the screen. The source made the active and inactive calls. The rule behind the calls is not given here.

Target: DNA topoisomerase I (Yersinia pestis CO92) (UniProt A0A2S9PM60)
Experiment: Y. pestis Topo-I inhibitors, cleavage product readout, dose response, biochemical, Y. pestis CO92, cherry-pick (AID 588525)
Conditions: purified Y. pestis Topo-I, plate reader; at 38 µM (top of the series) unless noted

Compound	activity (cleavage complex accumulation)
C#CCN(C[C@@H](CC(C)C)NC(=O)OC(C)(C)C)S(=O)(=O)c1ccc(Br)cc1F	inactive: 15.2%
CSc1ccccc1NC(=O)COC(=O)c1ccccc1Cc1ccccc1	inactive: 37.9%
Cc1ccc(Cl)cc1C1=CC(=O)C[C@H](c2ccc(F)cc2)C1	inconclusive: 8.01%
O=C(C(Sc1ccccc1)c1ccccc1)N1CCN(c2ccccc2F)CC1 (stereo not given)	inconclusive: 13.5%
CCOC(=O)c1nn(-c2cccc(C)c2)cc1C(=O)c1ccccc1	inconclusive: 4.19%
CCOC(=O)CSc1nc2ccccc2c(=O)n1CC1CCCC1	inconclusive: 4.56%
Cc1ccc(Cn2ccc(NC(=O)c3cc(-c4cccs4)on3)n2)cc1	inconclusive: 48.8% [at 19.5 µM]
Cc1cc2oc(=O)cc(CN(C)Cc3ccccc3)c2cc1C(C)C	inconclusive: 8.08%
CN(C(=O)c1cccc(COc2ccc(Cl)cc2Cl)c1)c1ccccc1	inconclusive: -11.8%
CC(C)(C)C1CCc2nc(NC(=O)Cc3cn4ccsc4n3)sc2C1 (stereo not given)	inconclusive: 16.6%
O=C(COC(=O)CNS(=O)(=O)c1ccc2ccccc2c1)Nc1ccccc1Sc1ccccc1	inconclusive: 4.36%
CCCCCCCCN1[C@@H](CC(=O)OCC)c2cc(C(F)(F)F)ccc2S1(=O)=O	inconclusive: 4.49%
CC(C)OC(=O)C(C)(C)Oc1ccc(C(=O)c2ccc(Cl)cc2)cc1	inactive: 20.1%
COc1ccccc1C(=O)OCC#CCSc1nnc(-c2cccc3ccccc23)o1	inconclusive: -6.15%
Cc1ccc(NC(=O)COC(=O)CCC2CCCC2)c(Br)c1	inconclusive: 20.2%
O=C(COC(=O)CCC1CCCC1)Nc1ccccc1Sc1ccccc1	inactive: 34.9%
COC(=O)C1=C(c2ccc(-c3ccccc3)c(F)c2)C[C@@H]2CC[C@H]1N2C(=O)NCc1ccco1	inconclusive: -7.83%
O=C(COc1c(Br)cc(Br)c2cccnc12)N1CCc2ccccc2C1	inconclusive: 33.1%
CCCCN(c1nc2ccccc2nc1Cl)S(=O)(=O)c1ccc(C)cc1	inconclusive: 17.2%
O=C(Cc1ccccc1)CC(CC(=O)c1ccccc1)c1ccccc1 (stereo not given)	inactive: 40.3%

Part of the list above in order of molecular weight, ascending:
Compound	activity (cleavage complex accumulation)
Cc1ccc(Cl)cc1C1=CC(=O)C[C@H](c2ccc(F)cc2)C1	inconclusive: 8.01%
CCOC(=O)CSc1nc2ccccc2c(=O)n1CC1CCCC1	inconclusive: 4.56%
CCCCN(c1nc2ccccc2nc1Cl)S(=O)(=O)c1ccc(C)cc1	inconclusive: 17.2%
